Among the data in article PMC8505401 are binding values, retold here.

Chains of the proteins cited; added tags and fusions are not shown. Residues count along the entry.
UniProt P07996, residues 19-1170: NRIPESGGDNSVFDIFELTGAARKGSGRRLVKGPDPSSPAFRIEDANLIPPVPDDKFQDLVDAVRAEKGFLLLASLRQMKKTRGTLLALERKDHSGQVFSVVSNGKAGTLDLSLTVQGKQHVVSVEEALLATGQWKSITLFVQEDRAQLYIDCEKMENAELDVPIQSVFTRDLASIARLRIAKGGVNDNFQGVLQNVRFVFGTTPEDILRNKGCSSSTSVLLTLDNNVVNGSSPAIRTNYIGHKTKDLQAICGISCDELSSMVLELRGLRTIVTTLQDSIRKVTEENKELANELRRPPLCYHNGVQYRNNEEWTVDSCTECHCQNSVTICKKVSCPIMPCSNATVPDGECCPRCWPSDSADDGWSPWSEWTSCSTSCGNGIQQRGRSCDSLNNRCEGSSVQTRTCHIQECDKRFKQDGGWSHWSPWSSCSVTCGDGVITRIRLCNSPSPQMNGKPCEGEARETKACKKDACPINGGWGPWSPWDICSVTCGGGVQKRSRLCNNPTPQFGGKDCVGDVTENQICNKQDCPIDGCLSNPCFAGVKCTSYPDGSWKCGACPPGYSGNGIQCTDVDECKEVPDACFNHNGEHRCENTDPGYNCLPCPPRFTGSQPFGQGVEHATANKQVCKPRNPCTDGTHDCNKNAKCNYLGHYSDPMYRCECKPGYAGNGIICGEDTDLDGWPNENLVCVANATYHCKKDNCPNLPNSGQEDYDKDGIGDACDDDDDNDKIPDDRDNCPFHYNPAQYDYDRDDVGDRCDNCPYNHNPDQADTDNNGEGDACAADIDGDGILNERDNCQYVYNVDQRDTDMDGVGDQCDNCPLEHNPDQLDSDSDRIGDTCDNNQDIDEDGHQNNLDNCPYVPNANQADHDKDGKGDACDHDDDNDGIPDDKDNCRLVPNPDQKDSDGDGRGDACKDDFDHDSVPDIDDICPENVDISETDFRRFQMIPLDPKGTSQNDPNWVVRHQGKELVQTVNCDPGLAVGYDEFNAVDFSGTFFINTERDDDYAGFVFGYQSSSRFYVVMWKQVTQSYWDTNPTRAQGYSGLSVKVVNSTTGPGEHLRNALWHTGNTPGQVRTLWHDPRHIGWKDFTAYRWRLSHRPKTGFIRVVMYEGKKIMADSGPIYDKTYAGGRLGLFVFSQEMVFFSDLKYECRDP
UniProt P35579: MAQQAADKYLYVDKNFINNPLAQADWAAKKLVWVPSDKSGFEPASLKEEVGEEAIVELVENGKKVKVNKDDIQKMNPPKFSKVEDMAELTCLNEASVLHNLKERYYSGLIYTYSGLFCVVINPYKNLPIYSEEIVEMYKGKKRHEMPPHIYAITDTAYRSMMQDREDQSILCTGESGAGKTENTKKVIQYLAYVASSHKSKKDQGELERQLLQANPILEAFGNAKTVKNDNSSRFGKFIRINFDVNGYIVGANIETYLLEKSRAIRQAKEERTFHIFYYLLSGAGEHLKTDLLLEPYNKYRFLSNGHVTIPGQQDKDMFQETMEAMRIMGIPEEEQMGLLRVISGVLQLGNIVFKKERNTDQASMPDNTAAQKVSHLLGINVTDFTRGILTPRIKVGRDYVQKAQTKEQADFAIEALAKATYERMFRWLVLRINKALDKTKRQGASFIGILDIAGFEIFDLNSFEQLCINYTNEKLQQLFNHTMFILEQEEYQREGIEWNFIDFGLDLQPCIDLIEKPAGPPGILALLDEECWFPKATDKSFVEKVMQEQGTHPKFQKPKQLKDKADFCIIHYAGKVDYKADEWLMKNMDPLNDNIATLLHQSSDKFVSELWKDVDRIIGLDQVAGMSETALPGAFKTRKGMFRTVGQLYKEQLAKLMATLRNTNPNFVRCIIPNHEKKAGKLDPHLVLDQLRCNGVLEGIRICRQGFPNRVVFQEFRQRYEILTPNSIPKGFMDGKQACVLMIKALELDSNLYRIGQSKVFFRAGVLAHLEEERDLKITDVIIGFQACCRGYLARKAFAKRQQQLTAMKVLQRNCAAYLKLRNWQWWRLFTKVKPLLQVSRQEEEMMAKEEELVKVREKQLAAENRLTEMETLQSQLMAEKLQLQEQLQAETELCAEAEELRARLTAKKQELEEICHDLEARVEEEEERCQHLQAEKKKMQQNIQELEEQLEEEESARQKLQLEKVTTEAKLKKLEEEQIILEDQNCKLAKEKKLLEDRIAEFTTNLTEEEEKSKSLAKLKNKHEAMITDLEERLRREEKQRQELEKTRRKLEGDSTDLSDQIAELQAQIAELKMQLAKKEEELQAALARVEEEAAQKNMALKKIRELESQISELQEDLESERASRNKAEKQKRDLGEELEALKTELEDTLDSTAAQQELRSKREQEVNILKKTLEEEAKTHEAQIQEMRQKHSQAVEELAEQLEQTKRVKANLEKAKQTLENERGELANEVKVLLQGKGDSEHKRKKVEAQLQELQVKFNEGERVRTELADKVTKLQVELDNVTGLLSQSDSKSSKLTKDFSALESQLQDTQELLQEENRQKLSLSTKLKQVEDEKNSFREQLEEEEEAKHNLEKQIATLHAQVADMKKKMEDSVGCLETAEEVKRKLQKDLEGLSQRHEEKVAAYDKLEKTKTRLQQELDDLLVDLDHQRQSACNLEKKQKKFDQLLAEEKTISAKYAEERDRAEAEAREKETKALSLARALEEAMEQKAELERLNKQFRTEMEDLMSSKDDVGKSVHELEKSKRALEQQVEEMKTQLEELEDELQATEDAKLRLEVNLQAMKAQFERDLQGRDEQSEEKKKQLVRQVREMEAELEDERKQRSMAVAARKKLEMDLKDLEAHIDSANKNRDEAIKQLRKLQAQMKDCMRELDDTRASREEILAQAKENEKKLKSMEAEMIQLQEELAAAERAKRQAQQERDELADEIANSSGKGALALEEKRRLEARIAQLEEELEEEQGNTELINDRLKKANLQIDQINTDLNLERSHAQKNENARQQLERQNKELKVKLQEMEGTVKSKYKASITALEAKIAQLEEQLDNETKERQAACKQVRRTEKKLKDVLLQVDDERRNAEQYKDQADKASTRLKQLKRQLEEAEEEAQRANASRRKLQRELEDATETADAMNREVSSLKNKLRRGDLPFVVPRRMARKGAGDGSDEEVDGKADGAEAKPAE

In this assay the target is Thrombospondin 1 (human (endogenous in N14042)) (UniProt P07996). Nature of the assay: affinity purification with mass spectrometry; immunoprecipitation of THBS1 from glioma cells followed by mass spectrometry; no further conditions given.

No constants are given. Whether binding was seen depends on the method and setting. In cells and extracts the contact can be indirect. These calls come from enrichment with a bait or labelling near it, and not all partners need be listed.

As to “Myosin heavy chain 9 (from UniProt P35579 1-1960)”, the binding entry is “binds”.
